Measurements reported in PMC7931247.
These are yes or no findings as the source states them, for the method shown. Binding can be weak; no strength is given.

Amino acid sequences for entries named in this document (tags omitted). A change or cut given only in a name is not applied to a line headed by its entry.
UniProt O86717: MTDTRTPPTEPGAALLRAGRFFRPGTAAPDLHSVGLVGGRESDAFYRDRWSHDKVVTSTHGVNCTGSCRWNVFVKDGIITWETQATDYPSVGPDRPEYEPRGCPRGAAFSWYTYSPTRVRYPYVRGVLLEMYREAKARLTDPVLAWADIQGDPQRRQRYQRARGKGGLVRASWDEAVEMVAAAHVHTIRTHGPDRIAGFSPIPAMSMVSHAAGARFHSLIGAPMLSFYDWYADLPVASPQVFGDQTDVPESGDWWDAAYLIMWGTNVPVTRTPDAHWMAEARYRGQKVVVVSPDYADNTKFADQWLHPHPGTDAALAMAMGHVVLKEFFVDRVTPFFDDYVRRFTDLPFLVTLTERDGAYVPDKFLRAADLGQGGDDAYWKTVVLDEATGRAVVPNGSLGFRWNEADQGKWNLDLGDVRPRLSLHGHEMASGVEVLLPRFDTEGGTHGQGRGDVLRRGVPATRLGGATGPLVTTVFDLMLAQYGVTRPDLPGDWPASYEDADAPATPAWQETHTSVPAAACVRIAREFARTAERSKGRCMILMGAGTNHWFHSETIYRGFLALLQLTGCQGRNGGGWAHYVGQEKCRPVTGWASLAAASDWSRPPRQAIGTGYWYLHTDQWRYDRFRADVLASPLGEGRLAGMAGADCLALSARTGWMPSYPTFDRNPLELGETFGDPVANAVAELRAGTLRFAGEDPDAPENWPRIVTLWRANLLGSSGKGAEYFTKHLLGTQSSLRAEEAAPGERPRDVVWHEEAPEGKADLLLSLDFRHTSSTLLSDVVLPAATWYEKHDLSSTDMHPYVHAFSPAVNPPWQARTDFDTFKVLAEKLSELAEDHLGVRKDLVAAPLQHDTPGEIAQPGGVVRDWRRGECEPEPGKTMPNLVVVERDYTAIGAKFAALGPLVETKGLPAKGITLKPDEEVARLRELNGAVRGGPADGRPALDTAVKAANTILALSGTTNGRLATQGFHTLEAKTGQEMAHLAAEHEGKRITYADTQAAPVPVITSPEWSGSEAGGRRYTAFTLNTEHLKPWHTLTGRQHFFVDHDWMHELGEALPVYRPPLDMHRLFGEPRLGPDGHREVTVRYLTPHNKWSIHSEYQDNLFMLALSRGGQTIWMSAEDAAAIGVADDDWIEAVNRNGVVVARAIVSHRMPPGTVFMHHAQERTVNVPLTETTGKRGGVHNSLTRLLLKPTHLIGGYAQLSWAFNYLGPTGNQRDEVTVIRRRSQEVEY
UniProt Q9X808: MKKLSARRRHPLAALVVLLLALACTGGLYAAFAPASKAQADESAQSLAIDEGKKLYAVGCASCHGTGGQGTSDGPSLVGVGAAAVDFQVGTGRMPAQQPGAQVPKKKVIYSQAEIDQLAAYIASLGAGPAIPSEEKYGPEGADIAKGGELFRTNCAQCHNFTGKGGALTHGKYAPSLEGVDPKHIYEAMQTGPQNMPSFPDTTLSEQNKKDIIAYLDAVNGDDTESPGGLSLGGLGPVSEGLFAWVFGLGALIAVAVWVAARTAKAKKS
UniProt Q9ZBY7: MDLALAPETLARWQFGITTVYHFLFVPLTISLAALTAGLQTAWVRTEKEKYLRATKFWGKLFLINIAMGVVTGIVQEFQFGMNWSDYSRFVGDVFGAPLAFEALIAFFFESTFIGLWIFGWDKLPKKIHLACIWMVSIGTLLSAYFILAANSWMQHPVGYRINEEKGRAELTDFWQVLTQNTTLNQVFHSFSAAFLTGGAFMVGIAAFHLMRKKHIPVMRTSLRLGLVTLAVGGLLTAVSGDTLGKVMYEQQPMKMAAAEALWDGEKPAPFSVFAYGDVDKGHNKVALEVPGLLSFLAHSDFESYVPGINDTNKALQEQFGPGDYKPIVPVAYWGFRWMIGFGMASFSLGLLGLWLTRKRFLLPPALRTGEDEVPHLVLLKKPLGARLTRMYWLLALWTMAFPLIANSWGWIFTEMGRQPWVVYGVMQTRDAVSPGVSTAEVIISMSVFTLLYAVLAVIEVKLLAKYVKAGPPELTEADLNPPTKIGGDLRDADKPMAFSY

Tests used:
[1] = biological target: NarG1, catalytic subunit of nitrate reductase 1 (Nar1) (Streptomyces coelicolor A3(2)) (UniProt O86717); test: native gel or EMSA; untagged Nar1 enriched from Triton X-100-solubilised spore membranes (M145 + pNGnar1) by DEAE Sepharose and Superdex-200; CN/PAGE (10%) with in-gel nitrate reductase activity staining; activity bands A, B and C excised and analysed by mass spectrometry
[2] = biological target: NarG1, catalytic subunit of nitrate reductase 1 (Nar1) (Streptomyces coelicolor A3(2)) (UniProt O86717); test: native gel or EMSA; untagged Nar1 enriched from Triton X-100-solubilised spore membranes (M145 + pNGnar1) by DEAE Sepharose and Superdex-200; BN/PAGE (4-16%), Coomassie-stained bands 1-5 excised and analysed by mass spectrometry
[3] = biological target: NarG1, catalytic subunit of nitrate reductase 1 (Nar1) (Streptomyces coelicolor A3(2)) (UniProt O86717); test: native gel or EMSA; untagged Nar1 enriched from Triton X-100-solubilised spore membranes (M145 + pNGnar1) by DEAE Sepharose and Superdex-200; CN/PAGE (10%) with in-gel nitrate reductase activity staining; activity bands A, B and C excised and analysed by mass spectrometry; remark: listed apart in the source

binding [1] | binding [2] | binding [3] | Molecule
binds | binds |  | QcrC, cytochrome bc1 complex cytochrome c subunit (from UniProt Q9X808)
binds |  |  | CydA, catalytic subunit of the cytochrome bd oxidase (from UniProt Q9ZBY7)
 | binds | binds | NarH3, nitrate reductase beta-chain of the Nar3 enzyme (protein, UniProt Q9EWF4 1-548) MAQVAMVMNLDKCIGCHTCSVTCKQTWTNRTGTEYVWFNNVETRPGQGYPRGHEDQEKWKGGWHLKGGRLVPRTGGRARRLARLFANPELPTLDDYYQPWTYDYENLTTAPLGDDIPTAPPRSAIDGRPTEITWGPNWDDDLGGGPAQLAADPLLARMSEQVRLDYERAFMFYLPRICEHCLNPSCVAVCPSGALYKRVEDGIVLVDQDRCRGWRMCVSGCPYKKVYFNHSTGKAEKCTFCYPRIEAGDPTVCSETCVGRLRYLGVMLYDPDKVGAAASVTDEKDLYEAQLGCFLDPDDPEVARAAQASGIPHDWVEAARRSPVHALITRYRVALPLHPEYRTMPMVWYVPPLSPVVDALTGTGHDGEDPAALFGAIDTLRIPLGYLAELFTAGDPGPVEAALCRLAAMRSHMRRVNLGEEQDPRIAEAVGLDEPGILELYRLLALAKYDERYVIPTAYTGSVPDPGGTGAGCSLDGVGGPGMMPEGAGGGPGFGEFDPEAFHAPPTAGSGTSSALRGRVNLLNWNGKGRPNGLFPRARGAVRTEPEL
 | binds | binds | QcrB, cytochrome b component of the cytochrome bcc-aa3 oxidase supercomplex (protein, UniProt Q9X806 1-545) MSTAANEPSRSRGKAPAGERVADWADGRLGIYSLAKANMRKIFPDHWSFMLGEVCLYSFIIIILTGVYLTLFFHPSMAEVEYHGSYVPLQGQMMSEAYASTLDISFDVRGGLLIRQIHHWAALIFLAGMFVHMMRVFFTGAFRKPREVNWLFGFLLLVLGMFTGFTGYSLPDDLLSGTGIRFMEGAILSVPIVGTYISFFLFGGEFPGHDFVSRFYSIHILLLPGIMLGLLVGHLILVFYHKHTQFAGPGKTNKNVVGMPLLPVYTAKAGGFFFLVFGVISVVSAIATINPIWAIGPYRPDQVSTGAQPDWYMGFSEGLIRVMPGWEINAWGHTLVLGVFVPLLIFPLVLAAIAVYPFIESWVTGDKREHHILDRPRNAPTRTAFGVAWLTVYFVLLIGGGNDLWATHFHLSINAITWFVRIAFFVGPVVAFIATKRICLGLQRRDKDKVLHGRESGIIKRLPHGEFIEVHEPLSQEQLHTLTAHEQYQPAEIGPTVDENGVERKVSGTQKLRAKLSESYYGEESQIPKPTVEEYKEITSGHGHH
 | binds | binds | QcrB3, alternative spore-specific cytochrome b, paralogue of QcrB (protein, UniProt Q9K4I9 1-554) MLLQRRRARAGARARHAAEHTVNWADGRLPVSEGGGLLRKAFPEHWSFLLGEIALYSFVVLLLTGVWLTLFFKPSMTEVVYDGSYEPLLGVSMSEAYRSTLDISFDVRGGLLIRQAHHWASLVFLSAIGVHLLRVFFTGAFRRPREVNWLIGLTLFVLALAEGFAGYSLPDDLLSGTGLRIAQGIMLSIPVVGTYISMFVFGGEYPGHDIVPRLYSLHILLVPALLVALVTLHLILVFYLKHTQWAGRGRTNRNAVGKPMFPQFMTNSTGLFLMVFGVLVVLAAVAEINPIWTYGPYRPDIVSTGSQPDWYVGFLEGSLRLMPPFETAVAGHTVMWNVLVPAVLLPGALFAVLYAYPFFERWVTGDHEEHHLCDRPRDKPVRTGLGVAAIVFYAVLLLAGGNDILAHTFHVSLNLLTWIFRVSLVLAPPLAFVVTKRVCLALQEHDRERLTEGEETGEVHQTLAGGYAESHGPLDPEERHVLRARRQPAPLAPSPKEGGAPHVGRLRATLSEWYYGDRVDVEDVEPEPERESVAQTEASAEAVERDAYSGEPER
 | binds | binds | CtaC, probable cytochrome c oxidase subunit 2 (protein, UniProt Q9X814 34-319) CTYEDFPRLGMPTPTTEEAPRILSLWQGSWAAALATGVLVWGLILWSVFFHRRSRTKVEVPPQTRYNLPIEALYTMVPLVIVSVLFYFTARDESDLMSLNKKPDLTVNVVGFQWSWCFNHIEDVPGSTGDAKTSKELAGIPDRFIEDFPANAGGVYDCGTPGTENPQTGNPGPTLWLPKGKTVRFVLTSRDVIHSFWVVPFLMKQDVIPGHTNAFEVTPNKEGTFLGKCAELCGVDHSRMLFNVKVVSPERYEQHLQDLAKKGQTGYVPAGIAQTSHEKNRETNNL
 | binds | binds | QcrA, cytochrome bc1 complex Rieske iron-sulfur subunit (protein, UniProt Q9X807 1-353) MSSQDIPEENLPAEQDRPHGAAARPADETNPFADPGLPPHEPRVQDVDERAAKRSERTVALLFTLSMLATIAFIAAFVAIDVDKSVYIFPLGHISALNFALGMTLGVALFAIGAGAVHWARTLMSDEEVADERHPIEASPEVRAKVHADFKQGAKESVIGRRKLIRNTMLGALTLVPLSGVVLLRDLGPLPGTKLRHTLWSKGKLLVNMNTNEPLRPSDVAVGSLTFAMPEGLEEHDEDFQNEIAKAALMIIRLEPDSIKDKRELEWSHEGIVAYSKICTHVGCPISLYEQQTHHALCPCHQSTFDLADGARVIFGPAGHALPQLRIGVNDEGYLEALGDFEEPVGPAYWERG
 | binds | binds | NarG3, nitrate reductase alpha-chain of the Nar3 enzyme (protein, UniProt Q9EWF3 1-1227) MADAADRLLKAGQLLRRSPTTLDLRAVYRTDQNVNDRPYRERWAHDKVVRSTHGVNCTGSCSWKVYVKDGLITWETQQTDYPSVGPDRPEYEPRGCPRGASFSWYTYSPTRVRHPLARGVLVEMYRDAKRRHGGDPVAAWAELTSDPEKRRRYQSARGRGGFVRVDWDEALEIAAAAQVHTIAEYGPDRVAGFSPIPAMSMASHAVGARYHSLIGAPMISFYDWYADLPIASPQVFGDQTDVPESGDWWDAAYLMLWGSNVPVTRTPDAHWMAEARYRGQKVVVVSPDYADATKFADEWLHPHPGTDGALAMAMGHVLLTEFFVRRQVPYFTDYVKRFTDLPFLVALDEHAAGRWTPGKFVTAADLGLGRHADAGARAWMPVLIDADTDDVVVPNGTLGDRWGKGGEGRWNLDLGGTDPLLTLHGHTGGRGDNGVEVVLPRFDEPGATVVRGVPAREIGGRLVTTVYDLLLAQYAVARPGLAGHWPTGYDDAEQPCTPAWQERLTSVPAEAAVRAAREFARTAEQTRGRCMIVMGAGTNHWFHSDTIYRSFLSLLILTGCQGVNGGGWAHYVGQEKVRPYTGWQQLSTAADWVRPSRQMAGTPYWYLHTGQWRYESHAADALASPTAPGTLAGLHTADLVAQSARLGWMPSYPTFDANPLDLGRRARESGQEPGDWIAEQLGSGAVDFACEDPDAPRNWPRVLTVWRANLIGSSAKGNEYFLRHLLGARDGATSSEAPPEHRPRSVAWRDDAPEGKLDLLLSLDFRMTSTTLFSDLVLPAATWYEKHDLSSTDMHPFVHAFSPAINPPWQARTDFEIFHSLARRLSELAAGRLGTAHDLVATALQHDTPGETAQPGGRVTDWRDGRTPIEPGRNAPQVSLVERDYTAVADRLAAFGPLAEEHGMTVKGVTVNPHEESRWLAARCGTAPAGPARGRPLLDTDVKFCEAILALSGTTNGRLAAEGFDRLADRVGPGAGLAELAASVGERRVVFSDTQERPVQVGASFEWSGKEAPDRRYSPFTVNTEHKKPWHTLTGRQHFYVDHDWMAELGEQLPVYRPPLNLAELGDAPIPTGDGRAVTVRYLTPHAKWSIHSEYQENLLMQTLARGGPVVWMSPADADAIGAADNDWVEAVNAHGVVVARAIVSHRVPDGTVLMYHVQERLVNVPKSEANGRRGGVHNSLTKLLVKPTHLIGGYGQLSFAPNYYGPTGNQRDAVTTIRRRSQEVTY
 | binds | binds | CtaD, probable cytochrome c oxidase subunit 1-alpha (protein, UniProt Q9X813 1-578) MSILNEPQGASAAEDSYENELPVRRKQPGNVVIKWLTTTDHKTIGTMYLVTSFAFFVIGGVMALFMRAELARPGLQIMSNEQFNQAFTMHGTIMLLMFATPLFAGFANWIMPLQIGAPDVAFPRLNMFAYWLYLFGSTIAVGGFLTPQGAADFGWFAYSPLSDAVHSPGIGGDLWIMGLAFSGFGTILGSVNFITTIICMRAPGMTMFRMPIFTWNVLLTGVLVLLAFPVLAAALFALEADRKFGAHIFDSSNGGALLWQHLFWFFGHPEVYIIALPFFGIVSEIIPVFSRKPIFGYMGLIGATIAIAGLSVTVWAHHMYVTGGVLLPFFSFMTFLIAVPTGVKFFNWIGTMWKGSLSFETPMLWSTGFLITFLFGGLTGVILASPPLDFHVSDSYFVVAHFHYVVFGTVVFAMFAGFHFWWPKFTGKMLDERLGKITFWTLFVGFHGTFLVQHWLGAEGMPRRYADYLAADGFTALNTISTISSFLLGMSILPFFYNIWKTAKYGKKIEVDDPWGYGRSLEWATSCPPPRHNFLTLPRIRSESPAFDLHHPEISAIDQLENVGHGEKALAGGKEAGK
